Source: the supplement of paper PMC10849652
The list shows a part of the results.

By UniProt entry, the sequences of proteins in these tests, tags left out. Where a name states a change or a piece, a line headed by the entry shows the natural chain unless it says otherwise.
UniProt P78368: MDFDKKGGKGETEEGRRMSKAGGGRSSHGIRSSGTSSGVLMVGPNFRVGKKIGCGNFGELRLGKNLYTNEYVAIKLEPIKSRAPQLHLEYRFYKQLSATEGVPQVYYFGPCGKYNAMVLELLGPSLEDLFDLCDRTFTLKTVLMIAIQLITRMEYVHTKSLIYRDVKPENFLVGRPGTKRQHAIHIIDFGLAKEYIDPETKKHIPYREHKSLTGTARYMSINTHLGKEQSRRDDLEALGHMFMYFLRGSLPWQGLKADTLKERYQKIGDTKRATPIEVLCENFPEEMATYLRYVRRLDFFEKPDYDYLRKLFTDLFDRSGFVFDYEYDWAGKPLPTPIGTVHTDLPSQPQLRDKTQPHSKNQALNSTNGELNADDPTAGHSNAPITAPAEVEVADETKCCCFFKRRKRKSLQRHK
UniProt P00450: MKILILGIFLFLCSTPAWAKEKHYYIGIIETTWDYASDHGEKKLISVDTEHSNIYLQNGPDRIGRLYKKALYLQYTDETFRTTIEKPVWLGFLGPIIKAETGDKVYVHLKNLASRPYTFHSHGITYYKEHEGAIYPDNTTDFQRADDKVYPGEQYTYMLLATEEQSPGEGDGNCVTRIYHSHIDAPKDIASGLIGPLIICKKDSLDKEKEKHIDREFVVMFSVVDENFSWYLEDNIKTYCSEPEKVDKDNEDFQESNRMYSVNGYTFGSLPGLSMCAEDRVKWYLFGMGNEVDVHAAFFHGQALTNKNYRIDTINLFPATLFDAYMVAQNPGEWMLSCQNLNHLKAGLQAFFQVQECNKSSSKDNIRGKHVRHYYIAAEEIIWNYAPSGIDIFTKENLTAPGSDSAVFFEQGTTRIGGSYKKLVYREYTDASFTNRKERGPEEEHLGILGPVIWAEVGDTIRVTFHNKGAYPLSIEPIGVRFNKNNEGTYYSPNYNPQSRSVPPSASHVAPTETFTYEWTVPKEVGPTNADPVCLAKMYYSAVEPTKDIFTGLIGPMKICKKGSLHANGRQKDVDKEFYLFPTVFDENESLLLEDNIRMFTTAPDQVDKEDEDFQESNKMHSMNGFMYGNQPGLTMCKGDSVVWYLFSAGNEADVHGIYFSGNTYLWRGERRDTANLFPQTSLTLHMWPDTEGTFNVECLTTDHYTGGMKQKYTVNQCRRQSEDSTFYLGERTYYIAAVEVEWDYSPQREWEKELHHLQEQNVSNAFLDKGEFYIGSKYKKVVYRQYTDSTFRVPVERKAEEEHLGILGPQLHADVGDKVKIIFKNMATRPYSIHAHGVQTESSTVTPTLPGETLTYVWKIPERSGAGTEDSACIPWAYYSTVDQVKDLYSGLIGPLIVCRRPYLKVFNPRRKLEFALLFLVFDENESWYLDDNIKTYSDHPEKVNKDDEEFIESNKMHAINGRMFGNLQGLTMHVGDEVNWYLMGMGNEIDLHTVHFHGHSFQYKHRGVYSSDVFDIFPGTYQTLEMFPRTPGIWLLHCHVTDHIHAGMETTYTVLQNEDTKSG
UniProt Q9HCH3: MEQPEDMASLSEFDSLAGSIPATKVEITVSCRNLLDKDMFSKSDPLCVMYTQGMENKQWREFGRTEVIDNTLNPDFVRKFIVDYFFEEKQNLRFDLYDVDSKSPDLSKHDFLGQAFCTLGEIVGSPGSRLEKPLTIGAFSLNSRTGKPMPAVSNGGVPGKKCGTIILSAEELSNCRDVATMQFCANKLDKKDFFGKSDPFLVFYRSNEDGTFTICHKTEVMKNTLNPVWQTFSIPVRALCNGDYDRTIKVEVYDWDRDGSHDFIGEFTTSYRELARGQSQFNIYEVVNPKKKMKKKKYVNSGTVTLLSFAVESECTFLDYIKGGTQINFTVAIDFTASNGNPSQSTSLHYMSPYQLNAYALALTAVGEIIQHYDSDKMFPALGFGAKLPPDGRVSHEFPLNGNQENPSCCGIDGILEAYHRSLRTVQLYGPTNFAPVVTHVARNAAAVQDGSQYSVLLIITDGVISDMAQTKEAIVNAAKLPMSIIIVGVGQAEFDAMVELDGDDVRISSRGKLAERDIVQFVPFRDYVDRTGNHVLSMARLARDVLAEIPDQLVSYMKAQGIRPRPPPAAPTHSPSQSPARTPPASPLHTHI
UniProt Q14894: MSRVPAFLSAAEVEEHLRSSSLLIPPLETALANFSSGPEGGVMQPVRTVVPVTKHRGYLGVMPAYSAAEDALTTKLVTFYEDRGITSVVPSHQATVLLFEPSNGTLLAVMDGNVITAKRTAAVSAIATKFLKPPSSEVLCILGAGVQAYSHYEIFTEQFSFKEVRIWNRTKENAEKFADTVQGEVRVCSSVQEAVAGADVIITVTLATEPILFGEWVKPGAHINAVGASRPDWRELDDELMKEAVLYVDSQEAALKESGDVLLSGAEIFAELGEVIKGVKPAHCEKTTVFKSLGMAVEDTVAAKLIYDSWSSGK
UniProt O95639, whole entry, looked up: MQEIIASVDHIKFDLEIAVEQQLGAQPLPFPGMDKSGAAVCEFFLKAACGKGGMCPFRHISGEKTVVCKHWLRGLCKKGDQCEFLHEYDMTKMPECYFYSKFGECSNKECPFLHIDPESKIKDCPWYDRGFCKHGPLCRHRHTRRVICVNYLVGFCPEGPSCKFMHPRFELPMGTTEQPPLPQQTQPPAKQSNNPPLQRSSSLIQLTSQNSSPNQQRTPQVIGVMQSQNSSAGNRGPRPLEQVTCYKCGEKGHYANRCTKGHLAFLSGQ
UniProt Q16526: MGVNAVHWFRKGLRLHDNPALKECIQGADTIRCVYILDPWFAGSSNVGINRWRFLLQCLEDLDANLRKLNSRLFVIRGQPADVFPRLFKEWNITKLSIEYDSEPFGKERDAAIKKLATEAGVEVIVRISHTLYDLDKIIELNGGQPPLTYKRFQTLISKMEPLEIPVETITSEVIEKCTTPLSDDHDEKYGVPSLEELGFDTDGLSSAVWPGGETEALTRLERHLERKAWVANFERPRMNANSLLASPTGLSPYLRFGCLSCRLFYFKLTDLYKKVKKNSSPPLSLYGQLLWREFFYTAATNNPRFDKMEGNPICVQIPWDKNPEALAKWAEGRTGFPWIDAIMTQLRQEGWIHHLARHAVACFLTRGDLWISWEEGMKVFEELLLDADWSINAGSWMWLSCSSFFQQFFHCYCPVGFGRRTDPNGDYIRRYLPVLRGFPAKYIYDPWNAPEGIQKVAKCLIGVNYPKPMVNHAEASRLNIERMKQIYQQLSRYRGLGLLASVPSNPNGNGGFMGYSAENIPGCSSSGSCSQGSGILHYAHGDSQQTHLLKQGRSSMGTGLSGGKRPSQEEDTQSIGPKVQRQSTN
UniProt Q2VPA4, whole entry, looked up: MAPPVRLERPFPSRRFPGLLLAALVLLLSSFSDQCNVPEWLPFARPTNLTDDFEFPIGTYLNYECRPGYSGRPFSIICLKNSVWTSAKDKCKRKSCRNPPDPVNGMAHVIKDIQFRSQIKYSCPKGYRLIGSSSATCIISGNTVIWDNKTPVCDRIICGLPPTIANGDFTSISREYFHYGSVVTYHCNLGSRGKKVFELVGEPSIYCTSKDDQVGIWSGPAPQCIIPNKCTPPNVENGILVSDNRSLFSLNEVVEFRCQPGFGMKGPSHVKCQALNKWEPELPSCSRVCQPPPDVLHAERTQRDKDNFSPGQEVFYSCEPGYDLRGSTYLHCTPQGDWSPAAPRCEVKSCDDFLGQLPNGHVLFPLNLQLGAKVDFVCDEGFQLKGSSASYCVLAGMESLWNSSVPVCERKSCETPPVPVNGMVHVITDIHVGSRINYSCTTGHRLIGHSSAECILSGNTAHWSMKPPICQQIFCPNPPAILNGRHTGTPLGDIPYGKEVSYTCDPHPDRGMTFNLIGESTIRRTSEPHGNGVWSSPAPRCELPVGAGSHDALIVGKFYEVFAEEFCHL
UniProt P15169: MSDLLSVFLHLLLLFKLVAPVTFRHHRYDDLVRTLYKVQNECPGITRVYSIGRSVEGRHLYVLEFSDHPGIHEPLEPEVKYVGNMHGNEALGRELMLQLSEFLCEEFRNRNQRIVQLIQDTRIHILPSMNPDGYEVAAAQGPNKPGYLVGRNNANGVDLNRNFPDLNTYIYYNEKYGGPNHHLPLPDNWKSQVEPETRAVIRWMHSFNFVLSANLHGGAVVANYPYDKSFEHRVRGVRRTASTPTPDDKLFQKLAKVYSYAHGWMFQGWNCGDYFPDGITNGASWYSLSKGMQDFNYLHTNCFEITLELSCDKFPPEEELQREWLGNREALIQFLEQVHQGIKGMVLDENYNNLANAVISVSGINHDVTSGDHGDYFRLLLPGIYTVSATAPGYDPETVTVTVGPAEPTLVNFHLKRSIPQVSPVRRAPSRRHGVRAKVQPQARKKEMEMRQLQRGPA
UniProt Q6UUV7: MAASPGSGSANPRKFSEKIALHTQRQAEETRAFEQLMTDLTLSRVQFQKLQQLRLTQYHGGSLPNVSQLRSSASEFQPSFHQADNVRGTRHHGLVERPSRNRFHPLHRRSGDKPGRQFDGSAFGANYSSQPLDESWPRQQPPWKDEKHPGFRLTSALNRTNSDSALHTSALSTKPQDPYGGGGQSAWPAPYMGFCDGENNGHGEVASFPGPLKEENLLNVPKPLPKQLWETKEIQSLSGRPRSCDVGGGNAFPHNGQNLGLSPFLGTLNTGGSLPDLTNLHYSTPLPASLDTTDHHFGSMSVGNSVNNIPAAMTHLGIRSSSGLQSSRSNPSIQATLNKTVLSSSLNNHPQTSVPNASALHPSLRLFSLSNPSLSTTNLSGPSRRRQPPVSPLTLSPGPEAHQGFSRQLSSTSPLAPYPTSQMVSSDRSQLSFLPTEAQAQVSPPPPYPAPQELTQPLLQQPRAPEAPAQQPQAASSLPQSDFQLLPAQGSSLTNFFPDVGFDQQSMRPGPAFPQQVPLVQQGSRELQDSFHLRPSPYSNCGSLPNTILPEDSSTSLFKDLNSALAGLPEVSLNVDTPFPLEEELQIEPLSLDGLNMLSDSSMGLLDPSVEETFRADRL
UniProt Q6QEF8, whole entry, looked up: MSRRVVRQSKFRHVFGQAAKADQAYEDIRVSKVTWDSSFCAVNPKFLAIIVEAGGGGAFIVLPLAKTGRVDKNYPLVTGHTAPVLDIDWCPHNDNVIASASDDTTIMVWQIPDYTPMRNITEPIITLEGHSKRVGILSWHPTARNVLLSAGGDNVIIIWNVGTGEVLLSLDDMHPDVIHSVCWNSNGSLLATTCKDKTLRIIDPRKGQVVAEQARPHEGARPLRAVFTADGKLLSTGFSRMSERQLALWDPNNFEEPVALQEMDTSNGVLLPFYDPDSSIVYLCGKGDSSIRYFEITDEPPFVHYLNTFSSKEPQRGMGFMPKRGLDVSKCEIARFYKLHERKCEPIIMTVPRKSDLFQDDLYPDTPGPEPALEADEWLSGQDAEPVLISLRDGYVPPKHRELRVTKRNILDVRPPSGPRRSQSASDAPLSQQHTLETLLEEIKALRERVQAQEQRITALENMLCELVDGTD
UniProt Q96I36: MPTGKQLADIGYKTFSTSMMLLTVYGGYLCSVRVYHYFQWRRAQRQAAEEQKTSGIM
UniProt O14810: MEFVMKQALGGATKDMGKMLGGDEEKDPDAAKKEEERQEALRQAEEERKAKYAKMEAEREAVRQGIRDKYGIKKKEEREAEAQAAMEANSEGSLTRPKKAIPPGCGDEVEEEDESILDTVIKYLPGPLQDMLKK
UniProt P53674: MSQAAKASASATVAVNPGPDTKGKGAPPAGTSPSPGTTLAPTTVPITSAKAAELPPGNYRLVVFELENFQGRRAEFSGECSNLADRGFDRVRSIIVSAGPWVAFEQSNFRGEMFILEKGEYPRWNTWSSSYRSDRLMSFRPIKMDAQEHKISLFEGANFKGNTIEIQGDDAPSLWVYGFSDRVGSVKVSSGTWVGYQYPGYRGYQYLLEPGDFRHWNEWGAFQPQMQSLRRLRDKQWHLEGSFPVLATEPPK
UniProt Q5TA50: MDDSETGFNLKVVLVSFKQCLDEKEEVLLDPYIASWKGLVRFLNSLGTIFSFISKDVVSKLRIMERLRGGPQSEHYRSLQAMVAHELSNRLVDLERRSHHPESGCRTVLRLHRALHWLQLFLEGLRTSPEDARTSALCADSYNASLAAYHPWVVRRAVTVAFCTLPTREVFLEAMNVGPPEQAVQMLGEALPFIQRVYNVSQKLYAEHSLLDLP
UniProt Q70SY1: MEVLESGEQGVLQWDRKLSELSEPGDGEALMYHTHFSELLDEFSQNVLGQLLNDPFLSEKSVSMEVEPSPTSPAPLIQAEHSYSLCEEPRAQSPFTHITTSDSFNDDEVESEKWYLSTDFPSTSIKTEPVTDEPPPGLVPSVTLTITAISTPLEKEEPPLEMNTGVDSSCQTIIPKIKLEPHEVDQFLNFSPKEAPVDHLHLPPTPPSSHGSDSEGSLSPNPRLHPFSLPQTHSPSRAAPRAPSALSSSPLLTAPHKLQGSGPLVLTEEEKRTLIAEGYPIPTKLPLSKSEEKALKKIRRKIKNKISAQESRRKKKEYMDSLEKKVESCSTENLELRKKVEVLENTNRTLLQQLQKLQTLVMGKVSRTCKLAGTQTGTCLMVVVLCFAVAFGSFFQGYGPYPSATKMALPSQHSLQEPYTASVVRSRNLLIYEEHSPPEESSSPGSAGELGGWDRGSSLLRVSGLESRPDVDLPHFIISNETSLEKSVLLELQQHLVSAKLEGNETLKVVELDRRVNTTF

How the values were obtained:
Test in all cases: log2 fold change, soluble protein after heating vs DMSO (PISA); higher = thermal stabilisation; K562 cells, 10 uM, 30 min; active = over 0.2 and 3.5 SD of the protein, either way, in both replicates (recomputed)
[1] = compound: CN1CCN(c2nc(C3=C(c4c[nH]c5ccccc45)C(=O)NC3=O)c3ccccc3n2)CC1 [sotrastaurin]
In short: (§1)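 Quantification of soluble protein used TMTpro 16plex LC-MS/MS, with channel sums equalised. Samples were the supernatant after 21,000xg for 90 min of pooled aliquots from K562 cells (2×10^6 cells/mL) treated with 10 μM compound for 30 min, heated for 3 min over 48°C-58°C, and extracted in PBS with 0.5% NP-40 at 4°C. Values, from duplicates, describe thermal stability against control samples on a log2 fold-change scale.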

[2] = compound: CN1CCc2c(c3ccccc3n2Cc2ccc(C(=O)NO)cc2)C1 [Tubastatin A]
In short: as §1

[3] = compound: CNCc1ccc(-c2[nH]c3cc(F)cc4c3c2CCNC4=O)cc1 [rucaparib]
In short: as §1

[4] = compound: COC(=O)N[C@@H](C)CNc1nccc(-c2cn(C(C)C)nc2-c2cc(Cl)cc(NS(C)(=O)=O)c2F)n1 [encorafenib]
In short: as §1

[5] = compound: COC1=CC=C(C=C1)CN2C=CC3=C2C=C(C=C3)C(=O)NO
In short: as §1

[6] = compound: CON(C)C(=O)N1N=C(c2cc(F)ccc2F)S[C@@]1(CCCN)c1ccccc1 [filanesib]
In short: as §1

[7] = compound: COc1cc(C(=O)O)ccc1NC(=O)[C@@H]1N[C@@H](CC(C)(C)C)[C@](C#N)(c2ccc(Cl)cc2F)[C@H]1c1cccc(Cl)c1F [idasanutlin]
In short: as §1

[8] = compound: COc1cc(Nc2ncc3c(n2)-c2ccc(Cl)cc2C(c2c(F)cccc2OC)=NC3)ccc1C(=O)O [alisertib]
In short: as §1

[9] = compound: COc1cc2ncnc(Nc3ccc(F)c(Cl)c3)c2cc1OCCCN1CCOCC1 [gefitinib]
In short: as §1

[10] = compound: COc1cccc2cc(-c3nc([C@H]4CC[C@H](C(=O)O)CC4)n4ncnc(N)c34)[nH]c12
In short: as §1

[11] = compound: CS(=O)(=O)N1CCN(Cc2cc3nc(-c4cccc5[nH]ncc45)nc(N4CCOCC4)c3s2)CC1 [pictilisib]
In short: as §1

[12] = compound: CNC(=O)C1=CC=CC=C1NC2=NC(=NC=C2Cl)NC3=C(C=C(C=C3)N4CCOCC4)OC
In short: as §1

[13] = compound: CN1CCN(CCOc2cc(OC3CCOCC3)c3c(Nc4c(Cl)ccc5c4OCO5)ncnc3c2)CC1 [saracatinib]
In short: as §1

[14] = compound: CN1CC[C@H](c2c(O)cc(O)c3c(=O)cc(-c4ccccc4Cl)oc23)[C@H](O)C1 [alvocidib]
In short: as §1

[15] = compound: CNC(=O)c1ccc(Nc2ncc(C(F)(F)F)c(NCc3nccnc3N(C)S(C)(=O)=O)n2)cc1 [defactinib]
In short: as §1

[16] = compound: CNc1nc(-c2ccc3c(N)n[nH]c3c2)cc(N2C[C@@H](C(=O)NC3CCCCC3)CC[C@H]2C)n1
In short: as §1

[17] = compound: COC(=O)[C@H](CCSC)NC(=O)C1=C(C=C(C=C1)NC[C@H](CS)N)C2=CC=CC=C2
In short: as §1

[18] = compound: CO[C@H]1C[C@@H]2CC[C@@H](C)[C@@](O)(O2)C(=O)C(=O)N2CCCC[C@H]2C(=O)O[C@H]([C@H](C)C[C@@H]2CC[C@H](n3cnnn3)[C@H](OC)C2)CC(=O)[C@H](C)/C=C(\C)[C@@H](O)[C@@H](OC)C(=O)[C@H](C)C[C@H](C)/C=C/C=C/C=C/1C [zotarolimus]
In short: as §1

[19] = compound: COc1cc2nc(-c3cc(F)ccc3O)nc(N[C@@H]3CNC[C@H]3C(C)(C)O)c2cc1OC
In short: as §1

[20] = compound: CS(=O)(=O)CCNCc1ccc(-c2ccc3ncnc(Nc4ccc(OCc5cccc(F)c5)c(Cl)c4)c3c2)o1 [lapatinib]
In short: as §1

Measured: log2 fold change

CSNK1G2 (UniProt P78368)
inactive: [1] -0.163 | [2] -0.066 | [3] 0.044 | [4] -0.093 | [5] -0.063 | [6] -0.064 | [7] -0.035 | [8] 0.029 | [9] -0.015 | [10] -0.274 | [11] 0.076

CROCCP2 (UniProt Q86T23)
inactive: [12] -0.057 | [3] -0.187 | [4] -0.086

COMMD3 (UniProt Q9UBI1)
inactive: [13] -0.032 | [14] -0.158 | [2] -0.159 | [15] -0.031 | [3] 0.064 | [16] 0.033 | [4] 0.063 | [17] 0.051 | [5] 0.021 | [18] 0.153 | [7] -0.028 | [8] 0.102 | [19] -0.179 | [9] -0.055 | [10] 0.047 | [20] 0.006

CP (UniProt P00450)
inactive: [19] -0.257 | [20] -0.179

CRAT (UniProt P43155)
inactive: [14] 0.465 | [18] 0.035 | [19] 0.401 | [20] -0.025

CRIP2 isoform 2 (UniProt P52943)
inactive: [1] 0.039 | [14] 0.231 | [2] 0.016 | [12] 0.028 | [15] 0.024 | [3] -0.074 | [4] -0.157 | [17] 0.021 | [5] -0.128 | [6] -0.057 | [18] -0.113 | [7] 0.107 | [19] -0.048 | [9] -0.08 | [20] -0.006

CRY2 (UniProt Q49AN0)
inactive: [13] -0.042 | [2] -0.037 | [15] -0.014 | [16] 0.073 | [17] 0.015 | [7] 0.199 | [9] 0.081

COPS3 isoform 2 (UniProt Q9UNS2)
inactive: [1] 0.134 | [2] -0.005 | [15] 0.109 | [3] -0.055 | [4] -0.041 | [17] 0.059 | [5] -0.144 | [6] 0.157 | [7] 0.138 | [8] -0.008 | [19] 0.321 | [9] 0.005 | [10] 0.083 | [20] -0.211 | [11] 0.128

CPNE5 (UniProt Q9HCH3)
inactive: [2] 0.082 | [12] 0.049 | [18] -0.102

CRYM (UniProt Q14894)
inactive: [13] 0.156 | [14] 0.036 | [2] -0.328 | [12] -0.056 | [16] -0.219 | [18] -0.449 | [11] 0.016

CPSF4 (UniProt O95639)
inactive: [7] 0.392 | [8] 0.486 | [9] -0.034 | [10] -0.071 | [11] 0.023

2 records picked at random from those above, as already listed:
CPNE5 (UniProt Q9HCH3)
inactive: [2] 0.082 | [12] 0.049 | [18] -0.102

CPSF4 (UniProt O95639)
inactive: [7] 0.392 | [8] 0.486 | [9] -0.034 | [10] -0.071 | [11] 0.023

The results go on.

CRY1 (UniProt Q16526)
inactive: [15] -0.025 | [17] -0.104 | [19] -0.09 | [9] 0.102 | [20] 0.038 | [11] 0.315

CR1L (UniProt Q2VPA4)
inactive: [12] -0.036

CPN1 (UniProt P15169)
inactive: [13] 0.139 | [2] -0.081 | [12] 0.153 | [15] -0.029 | [16] 0.058 | [17] 0.156

COL6A3 (UniProt P12111)
inactive: [12] 0.064 | [3] -0.081 | [4] -0.042 | [19] 0.089 | [20] -0.237 | [11] -0.291

COQ2 (UniProt Q96H96)
inactive: [12] -0.064 | [3] -0.052 | [4] -0.01

CS (UniProt F8VU34)
inactive: [3] 0.268 | [4] 0.158

CRTC3 (UniProt Q6UUV7)
inactive: [1] 0.044 | [2] -0.109 | [15] 0.025 | [17] -0.06 | [6] 0.015 | [18] -0.059 | [8] 0.202 | [10] -0.107 | [20] 0.078
active: [19] -0.86

CORO6 isoform 5 (UniProt Q6QEF8)
inactive: [1] -0.005 | [2] -0.003 | [15] 0.115 | [17] 0.043 | [5] 0.021 | [6] -0.315 | [7] 0.059

COP1 (UniProt Q8NHY2)
inactive: [14] -0.048 | [18] 0.02 | [7] 0.059 | [19] -0.096 | [20] 0.124

COX14 (UniProt Q96I36)
inactive: [1] -0.062 | [14] 0.075 | [12] 0.024 | [3] -0.117 | [4] 0.093 | [5] -0.233 | [6] 0.004 | [18] 0.088 | [19] -0.082 | [9] 0.089 | [20] 0.036 | [11] -0.149

CPLX1 (UniProt O14810)
inactive: [13] -0.09 | [12] -0.019 | [15] 0.074 | [16] -0.339 | [17] 0.108 | [5] 0.039 | [7] -0.2 | [8] -0.153 | [10] 0.229 | [11] 0.13

CPA4 (UniProt Q9UI42)
inactive: [2] 0.102 | [15] -0.333 | [3] -0.15 | [4] -0.271 | [17] -0.193 | [7] 0.34

COMMD1 (UniProt Q8N668)
inactive: [1] -0.038 | [2] -0.213 | [12] 0.119 | [15] -0.151 | [3] 0.15 | [4] -0.028 | [17] 0.092 | [5] 0.054 | [6] 0.06 | [8] -0.151 | [19] 0.029 | [9] -0.01 | [10] -0.04 | [20] -0.029 | [11] 0.006

CRYBB1 (UniProt P53674)
inactive: [13] 0.136 | [12] 0.868 | [16] 0.256 | [5] -0.065

CRTC2 (UniProt Q53ET0)
active: [19] -0.509
inactive: [1] -0.09 | [2] -0.031 | [12] -0.269 | [15] -0.218 | [3] 0.053 | [4] -0.026 | [17] -0.103 | [5] -0.004 | [6] -0.019 | [7] 0.086 | [8] 0 | [9] -0.056 | [10] 0.066 | [20] 0.079

COLEC11 isoform 10 (UniProt Q9BWP8)
inactive: [13] -0.274 | [14] -0.023 | [15] -0.092 | [16] -0.109 | [17] -0.047 | [5] 0.041 | [18] 0.011 | [7] 0.134 | [8] 0.042 | [9] 0.129 | [10] -0.006

CRABP1 (UniProt P29762)
inactive: [15] 0.499 | [17] -0.017 | [11] 0.293

CSGALNACT2 (UniProt Q8N6G5)
inactive: [14] -0.155 | [5] 0.035 | [18] -0.076 | [7] -0.026 | [9] -0.075

CPTP (UniProt Q5TA50)
inactive: [1] -0.167 | [12] 0.03 | [5] -0.076 | [6] -0.141 | [8] 0.141 | [10] -0.267

COL25A1 (UniProt Q9BXS0)
inactive: [12] -0.011

CRADD (UniProt P78560)
inactive: [14] -0.305 | [2] 0.163 | [12] -0.01 | [15] -0.07 | [17] 0.102 | [5] -0.156 | [18] 0.305 | [7] -0.053

COL2A1 (UniProt P02458)
inactive: [13] -0.066 | [14] -0.072 | [2] -0.142 | [15] 0.345 | [16] 0 | [17] 0.2 | [18] -0.195 | [7] 0.059

CREB3L2 (UniProt Q70SY1)
inactive: [2] 0.282 | [12] -0.19 | [15] -0.039 | [17] -0.172 | [5] 0.584 | [18] 0.042 | [7] 0.045 | [8] -0.022 | [9] -0.154 | [10] 0.176
